No constants are given. Whether binding was seen depends on the method and setting. In cells and extracts the contact can be indirect. Some results given as binding are weak or reduced against the parent protein; the word gives no strength. Sequences can lack the tags named with a protein. Blank lines part the entries; values can stand above or below the molecule they belong to.
Assays:
Assay in all cases: co-IP; anti-Flag (M2 Flag beads) immunoprecipitation from lysates of iMEFs stimulated with doxycycline for 12 h, no caspase inhibitor; ALB lysis buffer (30 mM Tris HCl pH 7.5, 40 mM NaCl, 2 mM EDTA, 2 mM KCl, 10% glycerin, 1% Triton X-100); overnight; immunoblot for RIPK3 and RIPK1
[1] = target: T1, Flag-tagged wild-type full-length mouse ZBP1 (mouse) (UniProt Q9QY24)
T1 sequence: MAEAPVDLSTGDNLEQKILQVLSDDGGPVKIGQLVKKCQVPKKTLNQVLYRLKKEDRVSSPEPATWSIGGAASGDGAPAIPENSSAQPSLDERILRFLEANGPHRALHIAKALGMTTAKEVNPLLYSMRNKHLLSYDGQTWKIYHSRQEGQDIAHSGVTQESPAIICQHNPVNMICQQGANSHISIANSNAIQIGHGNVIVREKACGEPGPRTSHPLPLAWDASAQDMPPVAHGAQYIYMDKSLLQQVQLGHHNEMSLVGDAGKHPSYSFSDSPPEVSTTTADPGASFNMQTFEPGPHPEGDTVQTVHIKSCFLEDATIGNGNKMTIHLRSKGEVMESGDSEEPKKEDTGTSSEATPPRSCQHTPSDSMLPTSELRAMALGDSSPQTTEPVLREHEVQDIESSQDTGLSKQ

Protein sequences, listed by entry. Tags and fused reporters are not part of them.
UniProt Q9QZL0: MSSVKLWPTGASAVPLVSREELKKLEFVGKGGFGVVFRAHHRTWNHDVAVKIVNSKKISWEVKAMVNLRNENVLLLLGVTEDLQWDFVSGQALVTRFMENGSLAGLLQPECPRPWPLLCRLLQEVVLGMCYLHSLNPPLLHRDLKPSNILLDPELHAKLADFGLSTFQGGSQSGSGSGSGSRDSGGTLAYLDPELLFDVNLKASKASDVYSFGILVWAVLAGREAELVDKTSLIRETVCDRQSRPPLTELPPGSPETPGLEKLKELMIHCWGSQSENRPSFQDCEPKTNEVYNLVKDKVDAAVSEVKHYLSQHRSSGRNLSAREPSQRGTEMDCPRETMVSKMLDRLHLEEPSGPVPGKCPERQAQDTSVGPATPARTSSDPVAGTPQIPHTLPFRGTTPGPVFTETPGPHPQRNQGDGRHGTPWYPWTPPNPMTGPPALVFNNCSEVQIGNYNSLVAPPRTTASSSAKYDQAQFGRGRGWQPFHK

[2] = target: T2, Flag-tagged C-terminally truncated constitutively active mouse ZBP1 (ZBP1ca) (mouse) (UniProt Q9QY24)
T2 sequence: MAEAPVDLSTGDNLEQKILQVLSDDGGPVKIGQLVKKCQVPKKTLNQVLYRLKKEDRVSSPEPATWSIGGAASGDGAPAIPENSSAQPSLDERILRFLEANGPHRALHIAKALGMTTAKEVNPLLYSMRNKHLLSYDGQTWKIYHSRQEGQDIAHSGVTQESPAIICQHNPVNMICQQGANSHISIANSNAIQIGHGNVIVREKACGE

[3] = target: T3, Flag-tagged wild-type full-length mouse ZBP1 (mouse), Q9QY24; conditions: remark: other sources report otherwise
T3 chain: T1 sequence

binding [1]: binds | binding [2]: binds
Molecule: RIPK3 (from UniProt Q9QZL0 1-486)

binding [3]: no binding
B1: RIPK1, Q60855 1-656 (protein)
chain: MQPDMSLDNIKMASSDLLEKTDLDSGGFGKVSLCYHRSHGFVILKKVYTGPNRAEYNEVLLEEGKMMHRLRHSRVVKLLGIIIEEGNYSLVMEYMEKGNLMHVLKTQIDVPLSLKGRIIVEAIEGMCYLHDKGVIHKDLKPENILVDRDFHIKIADLGVASFKTWSKLTKEKDNKQKEVSSTTKKNNGGTLYYMAPEHLNDINAKPTEKSDVYSFGIVLWAIFAKKEPYENVICTEQFVICIKSGNRPNVEEILEYCPREIISLMERCWQAIPEDRPTFLGIEEEFRPFYLSHFEEYVEEDVASLKKEYPDQSPVLQRMFSLQHDCVPLPPSRSNSEQPGSLHSSQGLQMGPVEESWFSSSPEYPQDENDRSVQAKLQEEASYHAFGIFAEKQTKPQPRQNEAYNREEERKRRVSHDPFAQQRARENIKSAGARGHSDPSTTSRGIAVQQLSWPATQTVWNNGLYNQHGFGTTGTGVWYPPNLSQMYSTYKTPVPETNIPGSTPTMPYFSGPVADDLIKYTIFNSSGIQIGNHNYMDVGLNSQPPNNTCKEESTSRHQAIFDNTTSLTDEHLNPIRENLGRQWKNCARKLGFTESQIDEIDHDYERDGLKEKVYQMLQKWLMREGTKGATVGKLAQALHQCCRIDLLNHLIRASQS

— publication PMC11239871
